Laboratory results from paper PMC10741561.
Results are given in words; binding and its absence hold for the method and conditions named. In cells and extracts the contact can be indirect. Some entries that bind do so weakly or less than the wild type. Blank lines part the entries; values can stand above or below the molecule they belong to.

By UniProt entry, the sequences of proteins in these tests, tags left out. Where a name states a change or a piece, a line headed by the entry shows the natural chain unless it says otherwise.
UniProt P70452: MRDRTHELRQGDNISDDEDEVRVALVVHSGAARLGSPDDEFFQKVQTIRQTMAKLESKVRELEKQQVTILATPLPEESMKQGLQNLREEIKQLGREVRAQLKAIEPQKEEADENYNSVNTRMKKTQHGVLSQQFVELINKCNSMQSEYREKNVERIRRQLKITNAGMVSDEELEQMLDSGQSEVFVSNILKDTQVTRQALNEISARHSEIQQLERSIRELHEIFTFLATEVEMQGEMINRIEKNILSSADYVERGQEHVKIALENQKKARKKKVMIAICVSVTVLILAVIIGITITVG
UniProt P63044: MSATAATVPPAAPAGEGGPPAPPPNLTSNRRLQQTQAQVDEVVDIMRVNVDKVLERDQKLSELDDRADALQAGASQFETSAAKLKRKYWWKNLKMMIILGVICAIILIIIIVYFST

Biological target: Phos-Sx4-Myc (full-length Sx4 with a double Myc-tag between residues 36 and 37 and with Y115 and Y251 both mutated to glutamic acid) (UniProt P70452)
Test: proximity ligation; fixed, permeabilised 3T3-L1 adipocytes stably expressing myc-tagged Sx4; anti-Myc with anti-SNAP23, anti-VAMP2 or anti-Munc18c; Duolink

- binding: binds
Molecule: VAMP2 (endogenous, 3T3-L1 adipocytes) (from UniProt P63044 1-116)

- binding: binds
B1: SNAP23 (endogenous, 3T3-L1 adipocytes) (protein, UniProt O09044 1-210)
chain: MDNLSPEEVQLRAHQVTDESLESTRRILGLAIESQDAGIKTITMLDEQGEQLNRIEEGMDQINKDMREAEKTLTELNKCCGLCICPCNRTKNFESGKNYKATWGDGGDNSPSNVVSKQPSRITNGQPQQTTGAASGGYIKRITNDAREDEMEENLTQVGSILGNLKNMALDMGNEIDAQNQQIQKITEKADTNKNRIDIANTRAKKLIDS
